In assay [1] the target is T1, dynamin 2 (mouse (endogenous in testis)) (UniProt P39054).
T1 sequence: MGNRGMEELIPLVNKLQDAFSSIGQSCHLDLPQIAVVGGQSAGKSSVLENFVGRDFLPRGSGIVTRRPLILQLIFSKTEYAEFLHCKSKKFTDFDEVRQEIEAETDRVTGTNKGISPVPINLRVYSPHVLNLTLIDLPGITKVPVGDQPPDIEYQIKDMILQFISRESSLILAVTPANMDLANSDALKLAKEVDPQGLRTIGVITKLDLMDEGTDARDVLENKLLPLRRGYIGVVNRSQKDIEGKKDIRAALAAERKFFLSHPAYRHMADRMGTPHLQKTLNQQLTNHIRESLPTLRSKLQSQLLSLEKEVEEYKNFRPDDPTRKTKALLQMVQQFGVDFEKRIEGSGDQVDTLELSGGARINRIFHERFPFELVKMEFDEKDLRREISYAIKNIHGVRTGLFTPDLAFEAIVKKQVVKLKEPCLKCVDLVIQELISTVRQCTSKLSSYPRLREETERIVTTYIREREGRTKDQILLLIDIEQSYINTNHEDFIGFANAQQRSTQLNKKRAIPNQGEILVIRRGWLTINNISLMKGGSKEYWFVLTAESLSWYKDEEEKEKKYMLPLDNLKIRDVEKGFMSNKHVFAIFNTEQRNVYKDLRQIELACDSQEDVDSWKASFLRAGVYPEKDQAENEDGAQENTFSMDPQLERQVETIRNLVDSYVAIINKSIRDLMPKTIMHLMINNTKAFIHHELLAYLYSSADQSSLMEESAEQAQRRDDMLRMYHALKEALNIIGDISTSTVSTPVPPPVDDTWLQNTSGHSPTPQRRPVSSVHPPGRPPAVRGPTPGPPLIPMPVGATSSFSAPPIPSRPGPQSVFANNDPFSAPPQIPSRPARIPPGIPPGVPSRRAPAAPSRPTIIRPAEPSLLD
Put plainly: co-IP; 10 ug primary antibody cross-linked (DTSSP) to Dynabeads Protein G, incubated with whole testis lysate (CHAPS lysis buffer, 137 mM NaCl, pH 7.0) at 4 °C overnight; denaturing elution, immunoblot; rabbit IgG IP as control. (A western blot detects proteins with antibodies after separation by electrophoresis.)

The chains behind the UniProt entries cited, without tags or fusion partners.
UniProt P11440: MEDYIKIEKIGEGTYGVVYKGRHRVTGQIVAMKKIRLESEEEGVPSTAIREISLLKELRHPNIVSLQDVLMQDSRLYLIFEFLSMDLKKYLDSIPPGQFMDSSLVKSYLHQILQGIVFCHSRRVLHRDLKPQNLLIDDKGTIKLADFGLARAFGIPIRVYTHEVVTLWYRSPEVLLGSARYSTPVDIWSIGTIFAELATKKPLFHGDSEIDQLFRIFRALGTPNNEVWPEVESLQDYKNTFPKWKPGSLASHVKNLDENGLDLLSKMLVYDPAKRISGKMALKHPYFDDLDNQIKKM

Assay [2] concerns the target T1, dynamin 2 (mouse (endogenous in testis)). Put plainly: proximity ligation; Duolink in situ PLA on fixed isolated mouse germ cells (SPG, PS, RS, elongating spermatids); signal means <40 nm.
In assay [3] the target is Calcineurin (PPP3CA) (mouse (endogenous in testis)) (UniProt P63328). In words: co-IP; 10 ug primary antibody cross-linked (DTSSP) to Dynabeads Protein G, incubated with whole testis lysate (CHAPS lysis buffer, 137 mM NaCl, pH 7.0) at 4 °C overnight; denaturing elution, immunoblot; rabbit IgG IP as control.
Assay [4] has as its target CDK1 (mouse (endogenous in testis)) (UniProt P11440). Described as above.
Assay [5] has as its target Calcineurin (PPP3CA) (mouse (endogenous in testis)) (UniProt P63328). Put plainly: proximity ligation; Duolink in situ PLA on fixed isolated mouse germ cells (SPG, PS, RS, elongating spermatids); signal means <40 nm.

Results are given in words; binding and its absence hold for the method and conditions named. Binding seen in cells or lysates may run through a third protein. Some entries that bind do so weakly or less than the wild type.

Take “CDK1 (from UniProt P11440 1-297) (enzyme)”: the binding entry in assay [1] and in assay [2] was “binds” in each case.

B1: dynamin 2 (protein, UniProt P39054 1-870)
chain: T1 sequence
Turning to B1, the binding entry in assay [3], in assay [4] and in assay [5] was “binds” each time.
